Article PMC5680929

Target: BCL6 (human (HK-2 cells)) (UniProt P41182)
Experiment: EMSA supershift
Conditions: anti-BCL6 antibody 2 ug, HK-2 nuclear extract, binding reduced by 100-fold unlabeled probe; EMSA with HK-2 nuclear extract and biotin-labeled probe; pH and temperature not stated; protein in an extract

“CCTTTTTCTGGAGAATGGGG (double strand) [NLRP3 promoter +283/+296 probe]”: binds.

The exact form of at least one protein or probe is not confirmed. Where cells or extracts were used, other partners may take part.
